Measured values published in PubChem BioAssay AID1487 (National Center for Advancing Translational Sciences (NCATS), 2009).
Some of the results follow. These are further read-outs of the screen, such as a control signal, another cell line or another target. No call is given for them. The list favours compounds with an active or inconclusive main result. Potencies come from curve fits of mixed quality, noted in brackets.

Experiment: qHTS Assay for Modulators of Lamin A Splicing
Settings: HeLa LMNA splicing GFP/RFP minigene ratio, 48 h
How it was run: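 S3 HeLa stable clones carrying a lamin A-EGFP splicing minigene plus DsRed2 were seeded at 600 cells/well in Opti-MEM with 2% FBS, pin-dosed and incubated 48 h at 37°C. Acumen cytometry (488 nm) gave the GFP/RFP total-intensity ratio.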

[1] = measured here: GFP splicing reporter channel
[2] = measured here: RFP viability control channel

Compound	AC50 [1]	AC50 [2]
CNC(=O)c1cc(C(=O)c2ccc(C(F)(F)F)cc2F)c[nH]1	0.158 µM [falling, single point]	–
CCOc1ccc(Cl)cc1S(=O)(=O)N1CCN(c2ccc(C)c(C)c2)CC1	–	31.6 µM [rising, single point]
Cc1ccc2nc(COc3ccccc3NC(=O)c3ccccc3F)cc(=O)n2c1	1.58 µM [rising, partial curve]	–
Cc1ccc2c(c1)c(CC(=O)Nc1ccc(C)c(F)c1)c(C(=O)O)n2C	–	25.1 µM [rising, single point]
CC1CCN(c2ccc(NC(=O)c3ccccc3[N+](=O)[O-])cc2)CC1	1.78 µM [rising, full curve]	–
Cc1oc(-c2cc(F)ccc2F)nc1CN1CCN(c2cnccn2)CC1	35.5 µM [falling, single point]	–
Cn1c(=O)n(C)c2cc([N+](=O)[O-])c(N3CCN(S(=O)(=O)c4ccc5ccccc5c4)CC3)cc21	–	2.82 µM [rising, single point]
CCOC(=O)N1CCN(Cc2nc3cc(NC(=O)C(C)C)ccc3n2C(C)C)CC1	–	2.51 µM [rising, full curve, poor fit]
Cc1ccc(-c2csc(NC(=O)CCNC(=O)c3ccccc3Cl)n2)cc1	31.6 µM [rising, single point]	28.2 µM [rising, single point]
COC(=O)N/N=C/c1ccc(OS(=O)(=O)c2ccc(C)cc2)c(OC)c1	35.5 µM [rising, single point]	35.5 µM [rising, single point]
COc1cc(/C=C/c2nc(-c3ccccc3O)n[nH]2)cc(OC)c1OC	–	25.1 µM [rising, single point]
Cc1nn(C)c2c1c(C(F)(F)F)cc(=O)n2C(C)C(=O)NCCc1ccccc1 (stereo not drawn)	–	31.6 µM [rising, single point]
Brc1ccc(C2=CC(c3cccs3)n3ncnc3N2)cc1 (stereo not drawn)	–	0.501 µM [falling, single point]
Cc1cc(C)c(O)c(-c2cc(C(=O)Nc3ccc(S(=O)(=O)N4CCOCC4)cc3)[nH]n2)c1	22.4 µM [falling, single point]	25.1 µM [falling, single point]
COC(=O)CN(c1ccccc1F)S(=O)(=O)c1ccc(C)cc1	0.0224 µM [rising, full curve, poor fit]	0.02 µM [rising, full curve, poor fit]
Cc1cc(C)c2nc(NNC(=O)c3ccc(S(=O)(=O)N4CCCCC4)cc3)sc2c1	–	12.6 µM [rising, partial curve]
NNC(=S)NCCc1ccccc1	8.91 µM [falling, partial curve]	11.2 µM [falling, partial curve, poor fit]

As a working copy, part of the list above.
Compound	AC50 [1]	AC50 [2]
Cc1ccc2nc(COc3ccccc3NC(=O)c3ccccc3F)cc(=O)n2c1	1.58 µM [rising, partial curve]	–
Cc1ccc2c(c1)c(CC(=O)Nc1ccc(C)c(F)c1)c(C(=O)O)n2C	–	25.1 µM [rising, single point]

(next part)

Compound	AC50 [1]	AC50 [2]
COc1ccc(C)cc1NC(=O)c1cc(S(=O)(=O)N2CCC(C)CC2)cn1C	5.01 µM [rising, full curve, poor fit]	7.08 µM [rising, partial curve, poor fit]
O=C(COC(=O)C12CC3CC(CC(C3)C1)C2)Nc1nc2c(F)c(F)c(F)cc2s1	11.2 µM [rising, single point]	12.6 µM [rising, single point]
CCSc1nc(-c2ccccc2)nc2c1CCCC2	0.0178 µM [falling, full curve, poor fit]	0.00891 µM [falling, full curve, poor fit]
O=C(/C=C/c1cn(-c2ccccc2)nc1-c1cccnc1)c1ccco1	11.2 µM [falling, partial curve, poor fit]	14.1 µM [falling, partial curve, poor fit]
COc1ccc(C2CC(C(F)(F)F)n3nc(C(=O)NCc4cn(C)nc4C)c(Cl)c3N2)cc1 (stereo not drawn)	–	31.6 µM [rising, single point]
Cc1ccccc1CSCCC(=O)NCCc1ccccc1	–	1.78 µM [rising, partial curve, poor fit]
CCc1ccc(NC(=O)C(NS(=O)(=O)c2cccc3nsnc23)c2ccccc2)cc1 (stereo not drawn)	35.5 µM [rising, single point]	31.6 µM [rising, single point]
COC(=O)c1cc(S(=O)(=O)Nc2cccc(S(N)(=O)=O)c2)oc1C	7.08 µM [falling, full curve, poor fit]	11.2 µM [falling, partial curve, poor fit]
Cc1ccccc1NC(=S)NC(NC(=O)c1ccco1)C(Cl)(Cl)Cl (stereo not drawn)	–	25.1 µM [rising, partial curve, poor fit]
Cc1cccc(NC(=O)c2sc3nc(-c4ccccc4)cn3c2C)c1C	10 µM [falling, partial curve, poor fit]	–
O=C(CSc1n[nH]c(-c2ccccc2)n1)N1CCN(c2ccccc2F)CC1	0.447 µM [rising, single point]	–
O=C(NC(=S)Nc1ccc2c(c1)OCCO2)c1cccc2ccccc12	31.6 µM [rising, single point]	35.5 µM [rising, single point]
Cc1ccccc1CC1(CO)CCCN(C(=O)CCCN2CCCCC2=O)C1 (stereo not drawn)	0.112 µM [falling, full curve, poor fit]	–
O=C(O)CC/C(=C\c1cccc(NC(=O)c2ccccc2Cl)c1)c1nc2ccccc2s1	22.4 µM [rising, single point]	20 µM [rising, single point]
COc1ccc(-c2cn3c(n2)sc2cc(C(=O)NC4CCCCCC4)ccc23)cc1	17.8 µM [rising, single point]	–
Cc1c(-n2c(SCC(=O)N(C)C3CCS(=O)(=O)C3)nc3ccccc3c2=O)c(=O)n(-c2ccccc2)n1C (stereo not drawn)	2.82 µM [falling, full curve, poor fit]	–
O=C(NC1CCCCC1)c1ccc(S(=O)(=O)NCc2cccnc2)cc1	20 µM [rising, single point]	17.8 µM [rising, partial curve]
